Experimental findings from article doi:10.1101/551549 are described below.

These are yes or no findings as the source states them, for the method shown.

This experiment addresses Can f 6 (dog) (UniProt H2B3G5). The experiment can be described thus: SEC. For orientation: SEC sorts molecules by how far they enter the pores of the column.

B1: Can f 6 (protein, UniProt H2B3G5 16-190)
chain: HEEENDVVKGNFDISKISGDWYSILLASDIKEKIEENGSMRVFVKDIEVLSNSSLIFTMHTKVNGKCTKISLICNKTEKDGEYDVVHDGYNLFRIIETAYEDYIIFHLNNVNQEQEFQLMELYGRKPDVSPKVKEKFVRYCQGMEIPKENILDLTQVDRCLQARQSEAAQVSSAE
Regarding B1, the binding result is “no binding”.
